Experimental data published in article PMC7862700.
Only a part is listed here, and it is no random draw. At the low end of the ranking the order means little.

Target: T1, ELK3 (UniProt P41970)
T1 sequence: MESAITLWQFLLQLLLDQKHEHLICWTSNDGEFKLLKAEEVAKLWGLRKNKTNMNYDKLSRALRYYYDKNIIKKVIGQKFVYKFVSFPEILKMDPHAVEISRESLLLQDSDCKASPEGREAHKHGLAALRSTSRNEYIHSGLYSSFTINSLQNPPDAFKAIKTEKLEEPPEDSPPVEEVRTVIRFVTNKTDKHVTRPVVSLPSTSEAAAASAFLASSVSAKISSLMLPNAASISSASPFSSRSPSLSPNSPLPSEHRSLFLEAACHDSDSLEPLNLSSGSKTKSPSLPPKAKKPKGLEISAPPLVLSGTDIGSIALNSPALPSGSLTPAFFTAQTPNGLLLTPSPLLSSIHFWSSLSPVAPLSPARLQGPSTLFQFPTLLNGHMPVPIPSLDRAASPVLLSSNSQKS
Assay: DAPPL (digital affinity profiling via proximity ligation, sequencing)
Conditions: 10 mM Tris-HCl pH 7.5, 50 mM NaCl, 1 mM DTT, 4% glycerol, room temperature, 30 min; GST-TFs on glutathione beads, 16-mer random dsDNA library, 0.1% …; high values mean tight binding; double strand, one strand shown; scale: fold enrichment (6-mer frequency, TF over GST control)

| Sequence | binding signal |
| --- | --- |
| GAAACA | 1.38 |
| ACGACT | 1.24 |
| TCACCG | 1.13 |
| TCTAAC | 1.16 |
| ATAGCG | 1.05 |
| TCAGCT | 0.959 |
| CTTTGT | 1.29 |
| CCAACG | 1 |
| ATTAAG | 0.993 |
| CAATAG | 1.13 |
| CATAGT | 0.959 |
| GATAAT | 1.12 |
| AACCGC | 1.07 |
| ACGATA | 1.16 |
| TAGGTA | 0.963 |
| TGGTGC | 0.995 |
| TCAGAT | 0.935 |
| AACACC | 0.94 |
| CCGCAG | 1.14 |
| AAACTG | 1.32 |

| Sequence | binding signal |
| --- | --- |
| TCAAAA | 1.17 |
| AGGACC | 1.15 |
| CGCGAT | 1.07 |
| CCTCAA | 1.44 |
| GCCCAA | 0.931 |
| TGTCTG | 0.965 |
| GGTAAT | 0.998 |
| TAACGC | 1.23 |
| CCATCA | 1.2 |
| GGACCT | 1.37 |
| GAAGTA | 2.1 |
| ATAACG | 0.957 |
| GTACGC | 0.993 |
| GTATCT | 1.09 |
| CCCCAG | 0.936 |
| TCTTCC | 2.79 |
| CGTTTG | 1 |
| GTCCCA | 1.18 |
| GTACCC | 1.12 |

Target: T2, SPIC (UniProt Q8N5J4)
T2 sequence: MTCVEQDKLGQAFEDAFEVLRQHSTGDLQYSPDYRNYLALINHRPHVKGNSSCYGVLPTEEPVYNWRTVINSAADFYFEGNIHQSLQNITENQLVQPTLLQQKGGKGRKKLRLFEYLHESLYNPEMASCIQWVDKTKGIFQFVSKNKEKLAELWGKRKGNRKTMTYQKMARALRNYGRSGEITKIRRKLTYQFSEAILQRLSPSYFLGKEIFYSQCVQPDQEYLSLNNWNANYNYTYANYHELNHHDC
Assay: as above
Conditions: 10 mM Tris-HCl pH 7.5, 50 mM NaCl, 1 mM DTT, 4% glycerol, room temperature, 30 min; GST-TFs on glutathione beads, 16-mer random dsDNA library, 0.1% …; high values mean tight binding; double strand, one strand shown; scale: fold enrichment (6-mer frequency, TF over GST control)

| Sequence | binding signal |
| --- | --- |
| GAAACA | 1.38 |
| ACGACT | 1.26 |
| TCACCG | 0.918 |
| TCTAAC | 1.07 |
| ATAGCG | 1.03 |
| TCAGCT | 0.88 |
| CTTTGT | 1.21 |
| CCAACG | 1.11 |
| ATTAAG | 1.04 |
| CAATAG | 1.07 |
| CATAGT | 0.935 |
| GATAAT | 1.27 |
| AACCGC | 0.993 |
| ACGATA | 1.38 |
| TAGGTA | 0.912 |
| TGGTGC | 1.14 |
| TCAGAT | 0.932 |
| AACACC | 1.02 |
| CCGCAG | 0.984 |
| AAACTG | 1.07 |

| Sequence | binding signal |
| --- | --- |
| TCAAAA | 1.24 |
| AGGACC | 0.843 |
| CGCGAT | 0.896 |
| CCTCAA | 1.46 |
| GCCCAA | 0.99 |
| TGTCTG | 1.33 |
| GGTAAT | 0.951 |
| TAACGC | 1.05 |
| CCATCA | 1.09 |
| GGACCT | 1.46 |
| GAAGTA | 2.19 |
| ATAACG | 0.923 |
| GTACGC | 1.2 |
| GTATCT | 1.15 |
| CCCCAG | 1.14 |
| TCTTCC | 2.31 |
| CGTTTG | 0.981 |
| GTCCCA | 1.12 |
| GTACCC | 0.913 |

Target: T3, ETV3 (UniProt P41162-2)
T3 sequence: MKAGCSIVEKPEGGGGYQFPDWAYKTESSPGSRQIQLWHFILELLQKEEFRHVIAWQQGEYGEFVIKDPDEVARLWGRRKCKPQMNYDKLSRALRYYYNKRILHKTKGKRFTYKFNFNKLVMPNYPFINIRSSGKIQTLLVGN
Assay: as above
Conditions: 10 mM Tris-HCl pH 7.5, 50 mM NaCl, 1 mM DTT, 4% glycerol, room temperature, 30 min; GST-TFs on glutathione beads, 16-mer random dsDNA library, 0.1% …; high values mean tight binding; double strand, one strand shown; scale: fold enrichment (6-mer frequency, TF over GST control)

| Sequence | binding signal |
| --- | --- |
| ACGACT | 1.22 |
| ATAGCG | 0.976 |
| TCAGCT | 1.05 |
| CCAACG | 1.09 |
| CATAGT | 0.981 |
| ACGATA | 1.13 |
| TAGGTA | 0.975 |
| CCGCAG | 1.07 |
| AAACTG | 1.07 |
| TCAAAA | 1.15 |
| GCCCAA | 0.96 |
| TGTCTG | 0.986 |
| CCATCA | 1.12 |
| GTACGC | 1.14 |
| CCCCAG | 1.07 |
| CGTTTG | 1.08 |
| GTACCC | 1.06 |
